The results in this text go back to publication PMC12116779.

Sequences of proteins named here, by UniProt entry; tags and fusion partners are left off.
UniProt Q9UBN7: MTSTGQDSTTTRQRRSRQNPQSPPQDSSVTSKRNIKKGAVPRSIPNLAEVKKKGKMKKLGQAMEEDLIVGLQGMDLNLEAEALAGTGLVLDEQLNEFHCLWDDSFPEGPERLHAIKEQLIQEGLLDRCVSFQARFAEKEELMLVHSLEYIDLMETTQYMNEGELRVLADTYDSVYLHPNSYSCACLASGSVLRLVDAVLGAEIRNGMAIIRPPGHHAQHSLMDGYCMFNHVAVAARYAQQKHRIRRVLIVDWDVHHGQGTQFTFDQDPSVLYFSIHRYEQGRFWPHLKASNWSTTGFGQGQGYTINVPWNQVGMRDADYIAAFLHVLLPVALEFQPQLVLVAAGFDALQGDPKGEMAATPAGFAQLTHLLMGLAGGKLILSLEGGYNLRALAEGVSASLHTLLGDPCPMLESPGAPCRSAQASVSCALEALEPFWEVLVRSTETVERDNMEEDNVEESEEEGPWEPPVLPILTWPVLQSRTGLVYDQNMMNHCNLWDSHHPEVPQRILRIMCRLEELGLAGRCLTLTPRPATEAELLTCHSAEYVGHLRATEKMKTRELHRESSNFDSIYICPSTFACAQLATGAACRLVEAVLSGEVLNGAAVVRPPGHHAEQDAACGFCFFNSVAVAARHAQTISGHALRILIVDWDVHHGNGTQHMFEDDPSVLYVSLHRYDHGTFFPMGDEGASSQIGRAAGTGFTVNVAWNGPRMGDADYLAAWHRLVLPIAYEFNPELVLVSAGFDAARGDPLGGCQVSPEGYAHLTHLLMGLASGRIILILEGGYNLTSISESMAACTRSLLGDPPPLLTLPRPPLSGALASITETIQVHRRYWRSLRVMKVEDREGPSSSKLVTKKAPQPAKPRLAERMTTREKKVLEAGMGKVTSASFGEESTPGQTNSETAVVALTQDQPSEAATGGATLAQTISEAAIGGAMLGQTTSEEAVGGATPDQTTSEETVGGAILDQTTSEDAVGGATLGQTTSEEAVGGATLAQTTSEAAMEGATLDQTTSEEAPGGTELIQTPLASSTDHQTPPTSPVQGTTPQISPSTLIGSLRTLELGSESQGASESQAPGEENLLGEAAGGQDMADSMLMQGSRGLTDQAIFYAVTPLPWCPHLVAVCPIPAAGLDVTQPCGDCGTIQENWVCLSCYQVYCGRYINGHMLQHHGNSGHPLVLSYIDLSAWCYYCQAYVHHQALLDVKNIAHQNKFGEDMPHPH

No constants are given. Whether binding was seen depends on the method and setting. In cells and extracts the contact can be indirect. A yes stands for co-enrichment or nearness to the bait. Other partners may have been found.

The experiment has as its target GFP-HDAC6 (UniProt Q9UBN7). Put plainly: affinity purification with mass spectrometry; GFP-HDAC6 or GFP-ENKD1 overexpressed in cells (HEK293T in the methods, HCE-2 in the legends), immunoprecipitated with anti-GFP beads, gel-based LC-MS.

B1: enkurin domain-containing protein 1 (ENKD1), endogenous, human cells (protein, UniProt Q9H0I2 1-346)
chain: MCEGPSRISGPIPPDPTLCPDNYRRPTSAQGRLEGNALKLDLLTSDRALDTTAPRGPCIGPGAGEILERGQRGVGDVLLQLEGISLGPGASLKRKDPKDHEKENLRRIREIQKRFREQERSREQGQPRPLKALWRSPKYDKVESRVKAQLQEPGPASGTESAHFLRAHSRCGPGLPPPHVSSPQPTPPGPEAKEPGLGVDFIRHNARAAKRAPRRHSCSLQVLAQVLEQQRQAQEHYNATQKGHVPHYLLERRDLWRREAEARKQSQPDPAMPPGHTRMPENQRLETLTKLLQSQSQLLRELVLLPAGADSLRAQSHRAELDRKLVQVEEAIKIFSRPKVFVKMDD
For the molecule B1, the binding result is listed as “binds”.
